No constants are given. Whether binding was seen depends on the method and setting.
Molecular target: TIR domain of human MAL/TIRAP (MAL^TIR), residues 79-221 (human) (UniProt P58753)
Experiment: condition: only 10 mM NaCl, 10 mM HEPES, pH 7.5, ~106 µM, 20 °C, for ~48 h; solution NMR; ~106 uM 13C-15N labelled MAL^TIR in 10 mM NaCl, 10 mM HEPES pH 7.5, 20 °C; both purified

B1: TIR domain of human MAL/TIRAP (MAL^TIR), residues 79-221 (domain or fragment, UniProt P58753 79-221, looked up)
chain: SSRWSKDYDVCVCHSEEDLVAAQDLVSYLEGSTASLRCFLQLRDATPGGAIVSELCQALSSSHCRVLLITPGFLQDPWCKYQMLQALTEAPGAEGCTIPLLSGLSRAAYPPELRFMYYVDGRGPDGGFRQVKEAVMRYLQTLS
notes: MAL (MyD88 adaptor-like protein; TIRAP), human, TIR domain, residues 79-221; construct in the vector pMCSG7; For the NMR work the same construct was 13C-15N labelled and kept in low-salt buffer (10 mM HEPES pH 7.5, 10 mM NaCl); also called WT MAL^TIR; MyD88 adaptor-like protein TIR domain; source: E. coli BL21 (DE3), purified (Ni IMAC, TEV cleavage, SEC Superdex 75)
In the case of B1, the binding is reported as “no binding”.
